No constants are given. Whether binding was seen depends on the method and setting. Some binding calls cover weakened binding; strength is not graded here.
Key:
Test in all cases: membrane recruitment on a supported lipid bilayer
[1] = target: MinD (cell-free expressed from the minD-minE bi-cistronic DNA template) (E. coli) (UniProt P0AEZ3)
[2] = target: MinE (cell-free expressed from the minD-minE bi-cistronic DNA template) (E. coli) (UniProt P0A734)
[3] = target: T1, FtsA (cell-free expressed from the ftsA-minD-minE tri-cistron DNA template) (E. coli) (UniProt P0ABH0)
T1 sequence: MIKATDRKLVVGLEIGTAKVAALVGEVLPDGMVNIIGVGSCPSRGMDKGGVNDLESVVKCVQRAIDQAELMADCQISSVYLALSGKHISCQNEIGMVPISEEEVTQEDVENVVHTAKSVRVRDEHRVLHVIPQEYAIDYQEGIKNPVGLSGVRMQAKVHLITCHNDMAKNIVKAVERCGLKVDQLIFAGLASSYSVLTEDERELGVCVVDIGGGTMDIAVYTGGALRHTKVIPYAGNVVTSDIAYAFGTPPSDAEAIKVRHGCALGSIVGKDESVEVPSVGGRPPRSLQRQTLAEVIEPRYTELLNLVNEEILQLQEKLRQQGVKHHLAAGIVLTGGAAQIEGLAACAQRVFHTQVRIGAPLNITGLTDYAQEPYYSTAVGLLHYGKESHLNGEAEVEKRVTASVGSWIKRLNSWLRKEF

Sequences of proteins named here, by UniProt entry; tags and fusion partners are left off.
UniProt P0AEZ3: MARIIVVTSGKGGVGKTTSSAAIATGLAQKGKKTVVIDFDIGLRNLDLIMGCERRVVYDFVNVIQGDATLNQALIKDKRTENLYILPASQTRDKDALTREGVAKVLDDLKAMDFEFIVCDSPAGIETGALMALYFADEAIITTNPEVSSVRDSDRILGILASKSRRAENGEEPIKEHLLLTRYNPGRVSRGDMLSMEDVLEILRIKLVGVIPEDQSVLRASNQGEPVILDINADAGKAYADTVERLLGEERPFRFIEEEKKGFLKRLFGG
UniProt P0A9A6: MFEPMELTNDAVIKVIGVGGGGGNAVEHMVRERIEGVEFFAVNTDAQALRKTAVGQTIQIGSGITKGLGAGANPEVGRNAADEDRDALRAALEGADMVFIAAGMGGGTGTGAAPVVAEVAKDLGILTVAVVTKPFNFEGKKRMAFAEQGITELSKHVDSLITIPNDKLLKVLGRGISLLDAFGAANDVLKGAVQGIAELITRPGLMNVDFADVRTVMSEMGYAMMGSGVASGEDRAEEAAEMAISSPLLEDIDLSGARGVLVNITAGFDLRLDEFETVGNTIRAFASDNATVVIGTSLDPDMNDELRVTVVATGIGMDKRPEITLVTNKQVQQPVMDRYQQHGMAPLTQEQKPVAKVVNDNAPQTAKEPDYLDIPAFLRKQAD

FtsZ-A647 (FtsZ conjugated to the AlexaFluor647 fluorophore) (from UniProt P0A9A6 1-383)
binding [1]: no binding (tested: 3 μM FtsZ-A647) | binding [2]: no binding (tested: 3 μM FtsZ-A647) | binding [3]: binds

— article doi:10.1101/2021.11.15.468671
